Measurements reported in PubChem BioAssay AID1259308 (NCATS, 2017)

- Purpose: 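Knock-downs that increase output of a recombinant reporter protein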 (primary screen)
- Cell system: human HEK293 embryonic kidney cells stably expressing firefly luciferase (HEK-CMV-Luc2-Hygro)
- Reagent: single siRNA against human genes, 0.8 pmol siRNA per well
- Timing: 72 h
- Read-out: 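Luciferase light (ONE-Glo) measured on one replicate plate set and viability (CellTiter-Glo) on the other, scaled to a negative control siRNA, with robust z-scores and luciferase per cell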
- Reading the numbers: total luciferase, z-score and total luciferase, % of control: higher = more reporter protein produced; luciferase per cell, z-score: higher = more reporter output per viable cell; viable cells, % of control: higher = more viable cells
- Rule for the call: 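An siRNA counts as active if its total luciferase robust z-score exceeds 3; genes with two or more such siRNAs out of three were retested with fresh siRNAs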
- Meaning of the calls: active = raised luciferase; inactive = no rise
Here is a random part of about 59,000 deposited reagents. About 1,510 of them (2.6%) count as active. 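Calls use total luciferase alone and ignore viability, so some active siRNAs may act by altering cell number.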 Entries without a mark were called inactive. Reagents against one gene are numbered here.

| gene | reagent no. | total luciferase, z-score | total luciferase, % of control | luciferase per cell, z-score | viable cells, % of control |
| --- | --- | --- | --- | --- | --- |
| ZNF414 (GeneID 84330) | 1 | 0.133 | 84.5 | -0.485 | 107 |
| ZNF414 (GeneID 84330) | 2 | 0.0499 | 82.9 | 1.01 | 71 |
| ZNF414 (GeneID 84330) | 3 | -0.171 | 78.5 | -0.209 | 92.7 |
| NFE4 (GeneID 58160) | 1 | -0.343 | 75.1 | -0.398 | 93.2 |
| NFE4 (GeneID 58160) | 2 | -1.86 | 44.9 | -1.8 | 80.5 |
| NFE4 (GeneID 58160) | 3 | 0.192 | 85.7 | 0.346 | 87.4 |
| FCAR (GeneID 2204) | 1 | 0.349 | 88.8 | 0.662 | 83.4 |
| FCAR (GeneID 2204) | 2 | -0.118 | 79.5 | -0.258 | 95.1 |
| FCAR (GeneID 2204) | 3 | 0.0832 | 83.5 | -0.323 | 102 |
| PLN (GeneID 5350) | 1 | 0.54 | 92.6 | -0.00284 | 104 |
| PLN (GeneID 5350) | 2 | 1.56 | 113 | 1.06 | 95.3 |
| PLN (GeneID 5350) | 3 | 2.34 | 128 | 2.2 | 80.4 |
| KCNK13 (GeneID 56659) | 1 | 2.21 | 126 | 1.59 | 92.6 |
| KCNK13 (GeneID 56659) | 2 | -0.169 | 78.5 | 0.161 | 84.1 |
| KCNK13 (GeneID 56659) | 3 | 0.556 | 92.9 | 0.539 | 90.1 |
| BTLA (GeneID 151888) | 1 | 0.514 | 92.1 | 0.517 | 89.8 |
| BTLA (GeneID 151888) | 2 | 1.43 | 110 | 1.51 | 82.9 |
| BTLA (GeneID 151888) | 3 | 0.182 | 85.5 | 0.0814 | 93.5 |
| MAGI2 (GeneID 9863) | 1 | 1.55 | 113 | 2.72 | 61.4 |
| MAGI2 (GeneID 9863) | 2 | 1.38 | 109 | 0.165 | 117 |
| MAGI2 (GeneID 9863) | 3 | 0.606 | 93.9 | 0.295 | 97.1 |
| CAMTA1 (GeneID 23261) | 1 | 0.589 | 93.6 | 0.307 | 96.5 |
| CAMTA1 (GeneID 23261) | 2 | -0.125 | 79.4 | -1.1 | 119 |
| CAMTA1 (GeneID 23261) | 3 | -0.483 | 72.3 | -0.553 | 93.4 |

5 successive entries from above, quoted:
| gene | reagent no. | total luciferase, z-score | total luciferase, % of control | luciferase per cell, z-score | viable cells, % of control |
| --- | --- | --- | --- | --- | --- |
| PLN (GeneID 5350) | 2 | 1.56 | 113 | 1.06 | 95.3 |
| PLN (GeneID 5350) | 3 | 2.34 | 128 | 2.2 | 80.4 |
| KCNK13 (GeneID 56659) | 1 | 2.21 | 126 | 1.59 | 92.6 |
| KCNK13 (GeneID 56659) | 2 | -0.169 | 78.5 | 0.161 | 84.1 |
| KCNK13 (GeneID 56659) | 3 | 0.556 | 92.9 | 0.539 | 90.1 |

The list goes on:
| gene | reagent no. | total luciferase, z-score | total luciferase, % of control | luciferase per cell, z-score | viable cells, % of control |
| --- | --- | --- | --- | --- | --- |
| OR56A1 (GeneID 120796) | 1 | 0.663 | 95.1 | 1.76 | 66.8 |
| OR56A1 (GeneID 120796) | 2 | -0.187 | 78.2 | 0.0431 | 86.4 |
| OR56A1 (GeneID 120796) | 3 | -0.177 | 78.4 | -0.441 | 98.4 |
| NUDT14 (GeneID 256281) | 1 | -0.278 | 76.4 | -0.991 | 111 |
| NUDT14 (GeneID 256281) | 2 | -2.09 | 40.4 | -2.96 | 98.4 |
| NUDT14 (GeneID 256281) | 3 | 1.62 | 114 | 1.37 | 89.1 |
| RTRAF (GeneID 51637) | 1 | 0.348 | 88.8 | -0.236 | 106 |
| RTRAF (GeneID 51637) | 2 | 0.377 | 89.4 | 0.0165 | 99.5 |
| RTRAF (GeneID 51637) | 3 | -1.32 | 55.7 | -1.7 | 97.5 |
| IL2RA (GeneID 3559) | 1 | 3.39 (active) | 149 | 3.02 | 75.3 |
| IL2RA (GeneID 3559) | 2 | 0.982 | 101 | 1.41 | 78.1 |
| IL2RA (GeneID 3559) | 3 | 0.259 | 87 | 0.16 | 93.2 |
| CABP4 (GeneID 57010) | 1 | -0.323 | 75.5 | -0.584 | 98.3 |
| CABP4 (GeneID 57010) | 2 | -0.976 | 62.5 | -1.7 | 109 |
| CABP4 (GeneID 57010) | 3 | 0.206 | 86 | 0.248 | 90 |
| SPACDR (GeneID 402573) | 1 | -0.379 | 74.3 | -0.692 | 99.7 |
| SPACDR (GeneID 402573) | 2 | 0.599 | 93.8 | 0.805 | 84.8 |
| SPACDR (GeneID 402573) | 3 | 0.566 | 93.1 | 0.803 | 84.2 |
| MGA (GeneID 23269) | 1 | -0.744 | 67.1 | -0.308 | 81.3 |
| MGA (GeneID 23269) | 2 | 0.634 | 94.5 | 0.266 | 98.5 |
| MGA (GeneID 23269) | 3 | -0.355 | 74.8 | 0.562 | 72.1 |
| RABL3 (GeneID 285282) | 1 | 0.706 | 95.9 | 0.808 | 86.6 |
| RABL3 (GeneID 285282) | 2 | -0.434 | 73.3 | -0.369 | 90.2 |
| RABL3 (GeneID 285282) | 3 | -0.964 | 62.7 | -1.13 | 94.5 |
| LATS2 (GeneID 26524) | 1 | -0.45 | 72.9 | 0.393 | 73.5 |
| LATS2 (GeneID 26524) | 2 | 1.99 | 122 | 1.47 | 92.3 |
| LATS2 (GeneID 26524) | 3 | -2.47 | 32.7 | -2.13 | 64 |
| CALML4 (GeneID 91860) | 1 | -2.58 | 30.6 | -2.54 | 66.8 |
| CALML4 (GeneID 91860) | 2 | -0.565 | 70.6 | 0.212 | 74.7 |
| CALML4 (GeneID 91860) | 3 | 4.63 (active) | 174 | 3.02 | 87.8 |
| NSG2 (GeneID 51617) | 1 | 0.539 | 92.6 | 0.316 | 95.2 |
| NSG2 (GeneID 51617) | 2 | 1.25 | 107 | 1.08 | 89.8 |
| NSG2 (GeneID 51617) | 3 | 1.84 | 118 | -0.0268 | 133 |
